Measured values as given in PubChem BioAssay AID1347076 (National Center for Advancing Translational Sciences (NCATS), 2019).
Out of some 400,000 compounds screened, about 13,000 (3.2%) were called active. Inconclusive results, whose numbers are uncertain, are shown with a selection of clear calls. The call rests on the fitted dose curve; in most records, active means well fitted cell-killing curve with a large enough effect; inconclusive means small, poorly fitted or top-dose-only effect, or effect the other way; inactive means flat fitted curve, though single readings scatter. Where the call is inconclusive, the potency comes from a doubtful curve fit.

Assay: qHTS assay for MDR1-selective chemotherapeutics: Primary screen using the drug-selected MDR subline cells KB-V1; further: nearly all actives have a fitted effect of over 60% in size
Conditions: KB-V1 MDR cells viability, CellTiter-Glo, 72 h; series mostly up to 46.1 µM
How it was run: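 KB-V1 cells (P-gp-expressing MDR subline of KB-3-1) in phenol-red-free DMEM with 10% FBS were exposed to library compounds over a concentration series for 72 h at 37 degrees C. Viability read by CellTiter-Glo luminescence; concentration-effect curves fitted after normalization.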
Potency means the concentration at half of the fitted maximal effect.

Row | SMILES | Potency
1 | O=C(NCc1cccc(F)c1)Nc1nnc([C@@H]2C[C@H](O)[C@@H](CO)O2)s1 | inactive
2 | C=CCN(Cc1nc(-c2ccc(OC)cc2)no1)C(=O)c1ccc2c(c1)OCO2 | active: 20.6 µM
3 | CCCOc1ccc(C(=O)NNC(=O)CCNC(=O)c2ccco2)cc1OC | inactive
4 | CN(C)c1ccc(C(CNC(=O)c2ccccc2F)N2CCc3ccccc32)cc1 (configuration not stated) | inactive
5 | CCn1nc(C)c(CNC(=O)CCc2nnc(-c3ccc(C(C)=O)s3)o2)c1C | inconclusive: 29.1 µM [cytotoxic, single point]
6 | COc1ccc(CNC(=O)CCN2C(=O)c3ccccc3C2=O)cc1OC | inconclusive: 13 µM [rising, single point]
7 | Cn1cc(Cl)c(C(=O)NNC(=S)NC2CCCCC2)n1 | inconclusive: 29.1 µM [cytotoxic, single point]
8 | O=C(NC1CCCCC1)N1CCN(c2ccccc2Cl)CC1 | inconclusive: 23.1 µM [cytotoxic, partial curve, poor fit]
9 | Cc1nn(-c2ccccc2)c2c1N(CCCC(=O)NCc1ccc(Cl)cc1)C(=O)CS2 | inactive
10 | CCN1c2ccccc2N(C)C1(C)c1ccccc1 (configuration not stated) | inactive
11 | COc1cc(CNC2CCCC2)cc(Cl)c1OCc1ccccc1Cl | active: 20.6 µM
12 | O=C1C2C3C=CC(C3)C2C(=O)N1c1ccc2c(c1)CCC2 (configuration not stated) | active: 18.4 µM
13 | CN(C)S(=O)(=O)c1cccc(NC(=O)COC(=O)C2(c3ccccc3F)CCCC2)c1 | inconclusive: 10.3 µM [cytotoxic, partial curve]
14 | COCCNC(=S)N/N=C/c1ccc([N+](=O)[O-])cc1 | inactive
15 | CC(C)(C)NC(=O)C(c1ccc(F)cc1)N(Cc1ccco1)C(=O)CCC(=O)Nc1ccccn1 (configuration not stated) | inconclusive: 9.2 µM [cytotoxic, partial curve, poor fit]
16 | CCOc1ccc(NC(=O)Cc2ccc(NC(=O)N3CCCCc4ccccc43)cc2)cc1 | inactive
17 | COc1ccc(C(=O)CCN2CCCCCC2)cc1 | inconclusive: 35.5 µM [cytotoxic, single point]
18 | CCN(C(=O)CSc1nnc(-c2ccco2)n1Cc1ccccc1)C1CCS(=O)(=O)C1 (configuration not stated) | inconclusive: 23.1 µM [rising, single point]
19 | CCC(=O)N(C)CCc1cc2c(c(OC)c1/C=N/NC(=O)c1ccccc1O)OCO2 | inconclusive: 18.4 µM [rising, partial curve, poor fit]
20 | Cc1ccc(CN(Cc2ccco2)C(=O)COc2ccc(Cl)cc2Cl)cc1 | inconclusive: 32.6 µM [cytotoxic, single point]
21 | Cc1ccc(-c2cc(C(F)(F)F)nc(SCC(=O)c3cccc([N+](=O)[O-])c3)n2)cc1 | inconclusive: 20.6 µM [cytotoxic, single point]
22 | Cc1c(C(=O)NNc2cc(=O)n(C)c(=O)n2C)cccc1[N+](=O)[O-] | inconclusive: 29.1 µM [cytotoxic, single point]
23 | CCOc1ccc(Nc2ncnc3c2cnn3C)cc1 | inactive

Pulled by structure from above, four records:
Row | SMILES | Potency
13 | CN(C)S(=O)(=O)c1cccc(NC(=O)COC(=O)C2(c3ccccc3F)CCCC2)c1 | inconclusive: 10.3 µM [cytotoxic, partial curve]
11 | COc1cc(CNC2CCCC2)cc(Cl)c1OCc1ccccc1Cl | active: 20.6 µM
9 | Cc1nn(-c2ccccc2)c2c1N(CCCC(=O)NCc1ccc(Cl)cc1)C(=O)CS2 | inactive
1 | O=C(NCc1cccc(F)c1)Nc1nnc([C@@H]2C[C@H](O)[C@@H](CO)O2)s1 | inactive

Additional compounds:

Row | SMILES | Potency
24 | CCc1nc(C)cn1S(=O)(=O)c1cc([N+](=O)[O-])ccc1Cl | inconclusive: 29.1 µM [cytotoxic, single point]
25 | Cc1cc(C)n(CC(O)Cn2c3ccc(Cl)cc3c3cc(Cl)ccc32)c(=O)n1 (configuration not stated) | active: 16.4 µM
26 | CSCCC(NC(=O)c1ccccc1)C(=O)NCCc1ccccc1 (configuration not stated) | inconclusive: 11.6 µM [cytotoxic, partial curve, poor fit]
27 | COC(=O)c1ccc(NC(=O)C2CCCCC2C(=O)O)cc1 (configuration not stated) | inconclusive: 16.4 µM [rising, single point]
28 | Cc1ccc(NS(=O)(=O)c2cc(C(=O)NCCSc3ccc(C)cc3)ccc2C)cc1 | active: 16.4 µM
29 | CCNC1CCC(Nc2ccnc3cc(Cl)ccc23)CC1 (configuration not stated) | inconclusive: 18.4 µM [cytotoxic, partial curve]
30 | CN(C(=O)CSc1ncnc2sc3c(c12)CCC3)C1CCS(=O)(=O)C1 (configuration not stated) | inconclusive: 32.6 µM [cytotoxic, single point]
31 | CCOC(=O)Cc1c(C)nc(Cc2ccc(OC(C)C)cc2)[nH]c1=O | inconclusive: 23.1 µM [cytotoxic, single point]
32 | COc1ccccc1CCc1nnc(CCC(=O)N(C)Cc2cccc3ncccc23)o1 | active: 8.2 µM
33 | COC(=O)c1ccc([C@H]2Nc3ccc(S(=O)(=O)Nc4ccc(C)cc4)cc3[C@H]3C=CC[C@H]32)cc1 | inconclusive: 29.1 µM [rising, single point]
34 | Cn1c(SCC(=O)N/N=C/c2ccc([N+](=O)[O-])s2)nnc1-c1ccccc1 | inconclusive: 18.4 µM [cytotoxic, single point]
35 | COc1ccc(NC(=O)N2CCN(c3cccc(C(F)(F)F)c3)CC2)cc1 | inconclusive: 16.4 µM [cytotoxic, single point]
36 | CCC(NC(=O)c1[nH]c(C)c(C(C)=O)c1C)c1ccc(Br)cc1 (configuration not stated) | inconclusive: 4.11 µM [cytotoxic, full curve, poor fit]
37 | Cc1ccc(Cc2c(C)nc3nc(SCC(=O)NCc4ccco4)nn3c2C)cc1 | active: 8.2 µM
38 | O=S(CC(O)(c1ccccc1)c1ccccc1)CC(O)(c1ccccc1)c1ccccc1 | inconclusive: 18.4 µM [cytotoxic, partial curve, poor fit]
39 | CC1=NN(C(=O)COc2ccccc2)C(O)(c2cccnc2)C1 (configuration not stated) | inconclusive: 32.6 µM [rising, single point]
40 | C=CC[C@H](CC(=O)OC(C)(C)C)C(=O)OC[C@H]1CCCN1C(=O)[C@@H](CC=C)CC(=O)N(CCO)Cc1ccccc1 | inactive
41 | Cc1[nH]c2ccc(F)cc2c(=O)c1SC(F)(F)C(F)C(F)(F)F (configuration not stated) | inactive
42 | CC(C)(C)NC(=O)CSc1nc(O)cc(=O)n1-c1ccccc1F | inactive
43 | COc1cccc(C(=O)C(=O)N2CCN(C(=O)OCc3ccccc3)CC2)c1 | inconclusive: 10.3 µM [cytotoxic, partial curve]
44 | CN1CCN(C(=O)c2cccc(NS(=O)(=O)c3ccc(Br)cc3)c2)CC1 | inconclusive: 10.3 µM [rising, single point]
45 | COc1cccc(OCCCCCN2CCOCC2)c1 | inconclusive: 20.6 µM [cytotoxic, single point]
46 | O=C(Cc1ccccc1)NCCCNC(=O)Cc1ccccc1 | inconclusive: 23.1 µM [cytotoxic, partial curve, poor fit]

Excerpt: compounds 8–9
Row | SMILES | Potency
8 | O=C(NC1CCCCC1)N1CCN(c2ccccc2Cl)CC1 | inconclusive: 23.1 µM [cytotoxic, partial curve, poor fit]
9 | Cc1nn(-c2ccccc2)c2c1N(CCCC(=O)NCc1ccc(Cl)cc1)C(=O)CS2 | inactive

The listing continues.

Row | SMILES | Potency
47 | O=C1Oc2ccccc2C(=O)/C1=C/N1CCN(c2ccccc2F)CC1 | inactive
48 | Cc1ccc(NC(=O)CSc2nc3ccccc3c3nc(CCn4cncc4C)nn23)c(C)c1 | inconclusive: 7.31 µM [cytotoxic, partial curve]
49 | COC(c1ccccc1)(c1ccccc1)C(Oc1nccc(C)n1)C(=O)O (configuration not stated) | inconclusive: 11.6 µM [rising, partial curve, poor fit]
50 | CCc1cccc(CC)c1N(COC)C(=O)Cn1nnc2ccccc21 | inactive
51 | CN(C1CCCCC1)S(=O)(=O)c1ccc(NC(=O)C2CCCCC2)cc1 | inconclusive: 29.1 µM [cytotoxic, single point]
52 | Cc1cc(Cl)ccc1OCC(=O)NCCCn1ccnc1 | inconclusive: 18.4 µM [cytotoxic, partial curve, poor fit]
53 | O=C1NC(c2ccc(-c3ccccc3[N+](=O)[O-])o2)C(C(=O)c2ccc(Cl)cc2)C(O)(C(F)(F)F)N1 (configuration not stated) | inconclusive: 23.1 µM [cytotoxic, single point]
54 | COCCOC(=O)c1c(C)nc(SCC(=O)Nc2ccc(C)cc2)c(C#N)c1-c1ccco1 | inconclusive: 1.64 µM [cytotoxic, full curve]
55 | Cc1ccc2c(c1)c1c(n2CC(O)Cn2nc(C)c(Br)c2C)CCCC1 (configuration not stated) | active: 20.6 µM
56 | O=C1C=C(c2ccccc2)C(c2ccccc2)C1 (configuration not stated) | inactive
57 | CCC(OCC(O)CN1CCN(CCN2C(=O)c3cccc4cccc(c34)C2=O)CC1)c1ccccc1 (configuration not stated) | inconclusive: 29.1 µM [cytotoxic, single point]
58 | CCC(=O)N1CCC1(C)C(=O)Nc1ccc2c(c1)CCN2C(C)=O (configuration not stated) | inactive
59 | Cc1ccc(S(=O)(=O)N2CCN(C(=O)c3ccc(-n4cncn4)c([N+](=O)[O-])c3)CC2)c(C)c1 | inconclusive: 20.6 µM [cytotoxic, single point]
60 | CCC1C/C(=C\c2cc(OC)c(OC)cc2OC)C(=O)/C(=C/c2cc(OC)c(OC)cc2OC)C1 (configuration not stated) | inactive
61 | COc1ccc(CN(C(=O)CSc2nnc(-c3c[nH]c4ccccc34)o2)c2ccc(F)cc2)cc1OC | active: 14.6 µM
62 | COc1ccc(NC(=S)NC(NC(=O)c2ccccc2Cl)C(Cl)(Cl)Cl)c([N+](=O)[O-])c1 (configuration not stated) | inconclusive: 6.51 µM [cytotoxic, full curve]
63 | COc1ccc(OC)c(CCNC(=O)C(=O)Nc2ccc3nc4n(c(=O)c3c2)CCCCC4)c1 | inconclusive: 10.3 µM [cytotoxic, partial curve, poor fit]
64 | COc1ccccc1CCc1nnc(CCC(=O)NCC2CCCO2)o1 (configuration not stated) | inconclusive: 20.6 µM [rising, single point]
65 | CSc1ncccc1C(=O)N1CCCC(Nc2ccc(C)c(C)c2)C1 (configuration not stated) | inconclusive: 11.6 µM [cytotoxic, partial curve, poor fit]
66 | COc1ccc(CCNC(=O)CCn2c(=O)c3ccccc3n(Cc3c(C)cc(C)cc3C)c2=O)cc1OC | inconclusive: 23.1 µM [rising, single point]
67 | O=C(NCCOc1ccccc1)c1cccc(S(=O)(=O)N2CCN(Cc3ccccc3)CC2)c1 | inconclusive: 14.6 µM [cytotoxic, partial curve]
